Drawing on PubChem BioAssay AID2685 (National Center for Advancing Translational Sciences (NCATS), 2010), this text covers AC50 and cell number change for 36 compounds.

The other results are listed elsewhere or left out. The main result of the screen is listed elsewhere. These columns were measured beside it and carry no call. Most of these compounds were active or inconclusive in the main read-out, so they are no random draw. The note in brackets gives the kind of curve behind each potency; many fits are weak.

This assay in a line: qHTS Assay for Lipid Storage Modulators in Drosophila S3 Cells.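 For cell number change: cells counted by Cell Tracker Red CMTPX staining in the red channel.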 The settings on record: BODIPY lipid droplet fluorescence, 18-24 h; for cell number change: measured here: cell count max response, cells fed with added oleic acid. Summed up:
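Drosophila S3 cells loaded with oleic acid (400 uM, as added) and compounds at several concentrations; lipid droplets imaged by 488-nm laser-scanning cytometry, 500–530 nm intensity and object ratio to cell channel. Percent activity normalized to 20 uM Triacsin C.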
In general terms: qHTS replaces the single test concentration by a dilution series.

Setting [1] is: measured here: lipid fluorescence (Fed channel) AC50, cells fed with added oleic acid.
Setting [2] is: measured here: cell number channel AC50, cells fed with added oleic acid.

One may read the AC50 as the concentration giving half of the maximal activity seen. A lower AC50 goes with activity at low concentration. For the compound `Cc1cccc(-n2nc3c(c2NC(=O)C2CC2)CS(=O)(=O)C3)c1C`, the AC50 under setting [1] is 0.164 µM [rising, full curve, poor fit].
With `CC(C)CNC(=O)Cn1nc(C(F)(F)F)c2c1CCCC2`, the cell number change was 22.8%. Moreover, the AC50 under setting [1] is 13 µM [rising, single point].
On to `CCOC(=O)c1ccc(NC(=O)CCc2nc(-c3ccc(Cl)cc3)no2)cc1`, for which the cell number change is -40.5%. Further, the AC50 under setting [2] was 23.1 µM [falling, partial curve]. For the same compound, the AC50 under setting [1] was 29.1 µM [falling, single point].
Consider `CCN(CC)C(=O)CSc1ncnc2sc(C)c(C)c12`, for which the cell number change was found to be 9.89%. Under setting [1], the concentration at half-maximal activity (AC50) is 0.103 µM [rising, full curve, poor fit].
Consider `Cc1ccc(Sc2ccc(/C=N/O)cc2[N+](=O)[O-])cc1`, for which the cell number change is -42.1%. Under setting [2], the AC50 is 0.00411 µM [falling, full curve, poor fit]. In addition, the AC50 under setting [1] is 0.92 µM [falling, full curve].
Take `Cc1ccc(NC(=O)CN(C)S(=O)(=O)c2cccc3cccnc23)cc1C`: the cell number change was found to be 8.65%. The half-maximal activity concentration (AC50) under setting [1] is 16.4 µM [falling, single point].
On to `CN(c1ccccc1)S(=O)(=O)c1cccc(NC(=O)Cn2cnc3ccccc3c2=O)c1`, for which the cell number change came out at 116%. In addition, the concentration at half-maximal activity (AC50) under setting [2] was 29.1 µM [rising, single point].
Turning to `CCC1(c2ccc(Cl)cc2)NC(=S)N(c2ccc(C)cc2)N1` (stereo not drawn), the cell number change is 32.5%. The AC50 under setting [2] is 8.2 µM [rising, partial curve].
As for `CNc1ccc(/C=C2\CSc3ccccc3C2=O)cc1[N+](=O)[O-]`, the cell number change was 39.4%.
`CC(=O)NC1CC2CCCC(C1)N2C(=O)Nc1ccc(Cl)c(C(F)(F)F)c1` (stereo not drawn): the cell number change stood at 20.3%. In addition, the AC50 under setting [2] is 0.651 µM [falling, full curve, poor fit]. Further, the AC50 under setting [1] is 3.26 µM [falling, single point].
As to `COc1ccc([C@H]2Cc3cccc(O)c3C(=O)O2)cc1O`, the cell number change was -14.2%. In addition, the AC50 under setting [1] is 0.116 µM [falling, full curve, poor fit].
With `CC(=O)N1CCN(C(=O)c2ccc(OC3CCN(Cc4ccccn4)CC3)cc2)CC1`, the AC50 under setting [1] is 18.4 µM [rising, partial curve, poor fit].
Take `Cc1ccc(N2C(=O)C3CCC(c4ccccc4)CC3C2=O)cc1` (stereo not drawn): the cell number change came out at 5.68%.
Turning to `O=C(c1ccc(Cl)cc1)N1CCC(O)(CSc2ccc(Cl)cc2)CC1`, the cell number change was found to be 20.1%. Moreover, under setting [1], the AC50 was 29.1 µM [rising, single point].
Turning to `O=C(N/C(=C\c1ccco1)C(=O)N1CCCC1)c1ccccc1`, the cell number change is -6.58%.
In the case of `Cc1cc(OCC(=O)NCCN2CCOCC2)cc(C)c1Br`, the cell number change is -16.9%. In addition, the AC50 under setting [1] is 6.51 µM [rising, partial curve].
`O=C(CC(NC(=O)c1ccccc1Cl)c1ccccc1)Nc1ccc2c(c1)OCO2` (stereo not drawn): the cell number change is 30.5%. For the same compound, under setting [2], the AC50 was 0.291 µM [rising, partial curve]. In addition, under setting [1], the AC50 is 1.64 µM [rising, partial curve, poor fit].
For the compound `O=C(CSc1nc(-c2ccccc2)cc(=O)[nH]1)Nc1ccccc1F`, the cell number change was determined as 20.5%. Also, under setting [1], the AC50 was 2.31 µM [rising, partial curve, poor fit].
Take `CCOCCCn1c(NN)nc2ccccc2c1=O`: the cell number change is -21.9%. For the same compound, under setting [1], the AC50 was 6.51 µM [falling, partial curve, poor fit].
Regarding `Cc1ccc(S(=O)(=O)N(c2cccc(C)c2)C2CCS(=O)(=O)C2)cc1` (stereo not drawn), the cell number change was 20.2%.
Turning to `O=C(CSc1nc2ncccc2[nH]1)NC1CCCCC1`, the cell number change is 17.8%. In addition, the AC50 under setting [2] was 1.3 µM [rising, partial curve, poor fit].
On to `OCC1(CCc2ccccc2)CCN(Cc2ccc3nsnc3c2)CC1`, for which the cell number change came to 32.6%. In addition, the AC50 under setting [2] was 36.6 µM [rising, single point]. In addition, the AC50 under setting [1] is 23.1 µM [rising, partial curve, poor fit].
Regarding `CCc1nnc(NC(=O)CSc2nnc(-c3ccc(S(=O)(=O)N(CC)CC)cc3)n2CC)s1`, the cell number change was determined as 67.3%.
As for `CCN(C(=O)COC(=O)CSc1ccc([N+](=O)[O-])cc1)C1CCS(=O)(=O)C1` (stereo not drawn), the cell number change worked out at 8.21%. Besides, the AC50 under setting [2] is 0.00651 µM [rising, full curve, poor fit]. Further, the AC50 under setting [1] was 0.00731 µM [rising, full curve, poor fit].
Turning to `CCOc1ccc(NC2=NC(C)(C)N=C(N)N2)cc1`, the cell number change is -19.2%. Besides, under setting [1], the AC50 was 23.1 µM [falling, partial curve].
In the case of `Cc1ccc(NC(=O)c2ccccc2NC(=O)Cc2ccccc2)cc1`, the cell number change came out at 11.9%. In addition, the concentration at half-maximal activity (AC50) under setting [1] is 3.26 µM [rising, partial curve].
Regarding `O=C(CCCn1c(SCC(=O)NCC2CCCO2)nc2ccccc2c1=O)NCc1ccccc1` (stereo not drawn), the cell number change was 54.6%. Under setting [2], the AC50 is 1.46 µM [rising, full curve]. Also, the AC50 under setting [1] was 1.46 µM [rising, full curve].
On to `Cc1ccc(NC(=O)c2cc(N3C(=O)C4CC=CCC4C3=O)ccc2N2CCCCC2)cc1` (stereo not drawn), for which the cell number change came to 0.324%. The AC50 under setting [1] is 0.411 µM [rising, partial curve, poor fit].
Regarding `O=C(c1ccc2c3n(nc2c1)-c1ccccc1CO3)N1CCOCC1`, the AC50 under setting [1] is 0.82 µM [rising, partial curve].
On to `Cc1ccc(C(=O)NCCCNC(=O)c2ccco2)cc1C`, for which the cell number change is 7.92%. Besides, under setting [1], the concentration at half-maximal activity (AC50) was 16.4 µM [rising, single point].
Turning to `CCN(CC)C(=O)CSc1nc2ncc(Cl)cc2[nH]1`, under setting [2], the AC50 is 0.291 µM [rising, full curve, poor fit].
On to `CCN(CC(=O)Nc1ccccc1C(F)(F)F)C(=O)/C=C/c1ccc(Cl)c([N+](=O)[O-])c1`, for which the cell number change stood at 81.2%. Further, the half-maximal activity concentration (AC50) under setting [2] is 6.51 µM [falling, single point]. Moreover, the AC50 under setting [1] is 0.731 µM [rising, full curve].
`COc1ccccc1CNC(=O)c1nn(-c2ccc(C)cc2)c(=O)c2c1c1ccccc1n2C`: the cell number change was -1.79%. For the same compound, the half-maximal activity concentration (AC50) under setting [1] is 1.3 µM [rising, partial curve].
`Cc1cnc(NC(=O)CCCSc2nc3ccccc3s2)s1`: the cell number change is -39.6%. For the same compound, under setting [2], the half-maximal activity concentration (AC50) is 16.4 µM [falling, partial curve]. The AC50 under setting [1] is 29.1 µM [falling, single point].
In the case of `COc1ccc(CC(=O)Nc2ccccc2C(=O)N2CCOCC2)cc1OC`, the cell number change is 15.4%. Moreover, the AC50 under setting [2] was 6.51 µM [rising, single point]. The AC50 under setting [1] was 4.11 µM [falling, full curve, poor fit].
On to `Cc1ccc(NC(=O)c2cccc(S(C)(=O)=O)c2)cc1`, for which the cell number change turned out to be 8.41%. Also, under setting [1], the AC50 is 32.6 µM [rising, single point].
